Measured values taken from the supplement of paper PMC12823440, “Inhibitors supercharge kinase turnover through native proteolytic circuits” (Nature, 2025).
Where a name gives a salt, the structure may show the parent alone. The list shows a part of the results. Hit calls seldom repeat between salt and free forms of one compound.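 Kinases were expressed as nanoluciferase fusions in K562 cells and luminescence was read every 4 h between 2 and 18 h as percent of control, DMSO set to 100% and a positive control to 0%. A time point counts as decreased when the signal drops significantly (2 sigma). The hit call is the authors' own, does not follow from the count of time points alone, and its rule is not shown.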

Sequences of proteins named here, by UniProt entry; tags and fusion partners are left off.
UniProt P07947, whole entry, looked up: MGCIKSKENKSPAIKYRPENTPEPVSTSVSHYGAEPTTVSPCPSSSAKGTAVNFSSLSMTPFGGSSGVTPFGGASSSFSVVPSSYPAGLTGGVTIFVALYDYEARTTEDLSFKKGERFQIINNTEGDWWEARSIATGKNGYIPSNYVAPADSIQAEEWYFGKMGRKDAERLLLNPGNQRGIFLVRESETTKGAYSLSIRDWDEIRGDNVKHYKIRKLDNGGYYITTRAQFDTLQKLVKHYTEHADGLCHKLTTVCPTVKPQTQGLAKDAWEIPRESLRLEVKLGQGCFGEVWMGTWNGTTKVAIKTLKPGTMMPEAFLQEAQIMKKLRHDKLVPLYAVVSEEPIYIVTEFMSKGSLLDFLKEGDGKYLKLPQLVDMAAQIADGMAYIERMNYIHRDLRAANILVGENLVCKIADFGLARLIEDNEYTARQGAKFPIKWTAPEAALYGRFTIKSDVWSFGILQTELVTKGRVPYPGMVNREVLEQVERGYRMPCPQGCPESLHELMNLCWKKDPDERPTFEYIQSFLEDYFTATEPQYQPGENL

Target: YES1 (UniProt P07947)
Assay: number of time points (of 5) at which kinase-Nluc abundance scored as decreased, DMSO-normalised (count); higher = more persistent destabilization
Settings: K562; 2-18 h

Compound | number of time points
Cc1cc(C(=O)NC(C)(C)C)cc(C#Cc2ccc3c4c(oc3c2)C(C)(C)c2cc(NS(C)(=O)=O)ccc2C4=O)n1 (10 µM) | 0
COCCOc1ccc2c(c1)ncn2-c1ccc2cccc(N3CCC(N)CC3)c2n1 (10 µM) | 1
COc1ccc2c(Oc3ccc4c(C(=O)Nc5ccccc5N)cccc4c3)ccnc2c1 [Chiauranib] (10 µM) | 0
COc1cc2c(cc1OC)/C(=C/c1ccc(O)cc1)C(=O)N2 (10 µM) | 0
COc1cc2ncnc(Nc3ccc(O)c(Br)c3)c2cc1OC (10 µM) | 0
O=C(O)[C@H]1O[C@@H](Oc2cc3oc(-c4ccc(O)cc4)cc(=O)c3c(O)c2O)[C@H](O)[C@@H](O)[C@@H]1O [Scutellarin] (10 µM) | 0
NCCOc1ccc(Cl)cc1C(=O)Nc1ccc([N+](=O)[O-])cc1Cl [HJC0152 hydrochloride] (2 µM) | 0
CC(Sc1nc2c(cnn2-c2cccc(Cl)c2)c(=O)[nH]1)C(N)=O (stereo not drawn) (10 µM) | 0
N#C/C(=C\c1ccc(O)c(O)c1)C(=O)O [Tyrphostin AG30] (10 µM) | 0
COc1cc(N2CCOCC2)ccc1Nc1ncc(F)c(Nc2ccccc2NS(C)(=O)=O)n1 (10 µM) | 0
CCC(=O)Nc1cccc(Oc2nc(Nc3ccc(N4CCN(C)CC4)cc3OC)ncc2Cl)c1 (10 µM) | 0
O=C1OC(/C=C/c2ccccc2)=NC/1=C\c1cccnc1 (10 µM) | 0
Cc1cccc(-c2[nH]ncc2-c2ccnc3ccccc23)n1 (10 µM) | 0
C=CC(=O)Nc1cc(Nc2nccc(-c3cn(C)c4ccccc34)n2)c(OC)cc1OCCN(C)C [Rezivertinib] (2.5 µM) | 0
Nc1nc(N)c2nc(-c3cccc(O)c3)c(-c3cccc(O)c3)nc2n1 (10 µM) | 0
CCN1CCN(Cc2cnc(Nc3cc(-c4cc(F)c5nc(C)n(C(C)C)c5c4)c(F)cn3)nc2)CC1 (10 µM) | 0
Nc1[nH]nc2nc(-c3ccc(NS(=O)(=O)c4cc(Cl)ccc4Cl)cc3)cnc12 (10 µM) | 0

Compound | number of time points
C=CC(=O)Nc1cccc(Oc2nc(Nc3ccc(N4CCN(C)CC4)c(F)c3)nc3[nH]ccc23)c1 [Avitinib (maleate)] (2.5 µM) | 0
Nc1nc(NCCNc2ncc(-n3ccnc3)c(-c3ccc(Cl)cc3Cl)n2)ccc1[N+](=O)[O-] (2.5 µM) | 0
O=C1Nc2ccc(I)cc2/C1=C/c1cc(Br)c(O)c(Br)c1 (10 µM) | 0
C=C1C(=O)[C@@]23[C@H](O)C[C@@H]4C(C)(C)C(=O)CC[C@@]4(C)[C@@H]2CC[C@@H]1[C@H]3O [Glaucocalyxin A] (2.5 µM) | 0
C=C1CCC[C@]2(C)C=C3OC(=O)C(C)=C3C[C@@H]12 [Atractylenolide I] (10 µM) | 0
Cc1nn(C)cc1-c1nc2c(N3CCN(Cc4ccc(Cl)cc4)CC3)c(Cl)cnc2[nH]1 (10 µM) | 0
Brc1ccc(CSc2nc3ccccc3o2)cc1 [BMP signaling agonist sb4] (10 µM) | 0
CN1CCN(c2cc(-c3ccncc3)c(-c3ccc4ccccc4c3)nn2)CC1 (10 µM) | 0
COc1cc(-c2cc(OP(=O)(O)O)cc(-c3cc(OC)c(OC)c(OC)c3)c2)cc(OC)c1OC [Stafia-1] (10 µM) | 0
CC(C)(C)Cc1[nH]nc2c1[C@@](C)(c1ccccc1)C1=C(CC(C)(C)CC1=O)N2 (10 µM) | 0
Cc1c(C(=O)Nc2ccc(Oc3ccnc4[nH]cc(-c5ccccc5)c34)c(F)c2)c(=O)n(-c2ccc(F)cc2)n1C (10 µM) | 0
N#Cc1ccc(-c2cnc3[nH]cc(NC(=O)c4cccnc4)c3c2)cc1 (10 µM) | 0
Cc1ccc(C(=O)NC2CC2)cc1-n1ncc(C(=O)c2cccc(C#N)c2)c1N [Acumapimod] (10 µM) | 0
COc1cc(N2CCC(N3CCN(C)CC3)CC2)ccc1Nc1ncc(Cl)c(-c2c[nH]c3ccccc23)n1 (2.5 µM) | 0
Cc1cc(Nc2cc(N3CCN(C)CC3)nc(Nc3ccc([N+](=O)[O-])cc3)n2)n[nH]1 (2.5 µM) | 0
C=CC(=O)N1CCC[C@@H](n2nc(-c3ccc(Oc4ccccc4)cc3)c3c(N)n[nH]c(=O)c32)C1 [BTK inhibitor 17] (10 µM) | 0

A different layout for part of the listing above.

| Compound | number of time points |
| --- | --- |
| C=C1C(=O)[C@@]23[C@H](O)C[C@@H]4C(C)(C)C(=O)CC[C@@]4(C)[C@@H]2CC[C@@H]1[C@H]3O [Glaucocalyxin A] (2.5 µM) | 0 |
| C=C1CCC[C@]2(C)C=C3OC(=O)C(C)=C3C[C@@H]12 [Atractylenolide I] (10 µM) | 0 |
